The target of the experiment is White clover cryptic virus 1 coat protein (White clover cryptic virus 1) (UniProt Q64FN9). The experiment can be described thus: split reporter.

Sequences of proteins named here, by UniProt entry; tags and fusion partners are left off.
UniProt Q64FN9: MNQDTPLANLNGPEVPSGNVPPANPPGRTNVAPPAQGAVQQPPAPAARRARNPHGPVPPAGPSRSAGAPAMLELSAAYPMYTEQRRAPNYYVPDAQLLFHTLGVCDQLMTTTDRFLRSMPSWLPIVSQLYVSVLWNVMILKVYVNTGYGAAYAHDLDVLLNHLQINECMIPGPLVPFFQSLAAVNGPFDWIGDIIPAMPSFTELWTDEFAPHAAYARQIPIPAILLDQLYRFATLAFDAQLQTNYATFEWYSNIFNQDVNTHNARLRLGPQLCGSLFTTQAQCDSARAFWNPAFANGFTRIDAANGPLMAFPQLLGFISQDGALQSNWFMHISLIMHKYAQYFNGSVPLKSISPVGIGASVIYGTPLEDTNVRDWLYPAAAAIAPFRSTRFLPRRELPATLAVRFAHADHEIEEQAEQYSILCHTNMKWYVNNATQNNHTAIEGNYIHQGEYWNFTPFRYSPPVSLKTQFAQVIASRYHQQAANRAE

No constants are given. Whether binding was seen depends on the method and setting. In cells and extracts the contact can be indirect. Some results given as binding are weak or reduced against the parent protein; the word gives no strength.

“White clover cryptic virus 1 coat protein (from UniProt Q64FN9 1-487)”: the binding entry is given as “binds”.

Values taken from publication PMC3814600.
